Experimental data: PubChem BioAssay AID1159583 (ICCB-Longwood Screening Facility, Harvard Medical School, 2016)
The list shows a part of the results. Some tests of the compounds listed are not included; inactive here does not mean inactive elsewhere.

Test: hypoxia reporter signal reduction in M. tuberculosis – fluorescence, absorbance growth readout, primary screen (AID 1159583)
Conditions: M. tuberculosis hypoxia-regulated fluorescent reporter, measured here: M. tuberculosis growth (absorbance), stronger effect = higher value, concentration not given here

| Compound | growth inhibition [%] |
| --- | --- |
| O=C(NCC1(N2CCCCC2)CCCCC1)c1cccc(Cl)c1 | -1.84 |
| COc1cccc(C(=O)NCC2(N3CCCCC3)CCCCC2)c1 | 1.54 |
| COc1ccc(Cl)cc1C(=O)NCC1(N(C)C)CCCCC1 | 7.05 |
| COc1cc(C(=O)NCC2(N(C)C)CCCCC2)c([N+](=O)[O-])cc1OC | 7.63 |
| CN(C)C1(CNC(=O)c2ccc(Br)cc2)CCCCC1 | 8 |
| CC(C)Oc1ccc(C(=O)NCC2(N(C)C)CCCCC2)cc1 | 9.43 |
| O=C(OCCN1CCCC1)C(O)(c1ccccc1)c1ccccc1 | 16.7 |
| COc1ccc(Br)c(C(=O)NCC2(N3CCCCC3)CCCCC2)c1 | 2.93 |
| O=C(OC1CN2CCC1CC2)C(CO)(c1ccccc1)c1ccccc1 (configuration not stated) | -0.814 |
| Cc1ccc(C(=O)NCC2(N3CCCCC3)CCCCC2)cc1 | -2.84 |
| COc1cc(SC)ccc1C(=O)NCC1(N(C)C)CCCCC1 | -5.37 |
| CN1[C@@H]2CC[C@H]1CC(OC(=O)C(O)(c1ccccc1)c1ccccc1)C2 (some centres not stated) | 7.52 |
| O=C(NCC1(N2CCCCC2)CCCCC1)c1cc([N+](=O)[O-])ccc1Cl | -0.21 |
| COc1ccc(C(=O)NCC2(N(C)C)CCCCC2)cc1 | 9.91 |
| CCN1CCCC(OC(=O)C2(O)c3ccccc3C=Cc3ccccc32)C1 (configuration not stated) | -1.59 |
| Cc1cc(C(=O)NCC2(N3CCCCC3)CCCCC2)ccc1[N+](=O)[O-] | 3.64 |
| O=C(NCC1(N2CCCCC2)CCCCC1)c1cccc(Br)c1 | -0.847 |
| O=C(NCC1(N2CCCCC2)CCCCC1)c1cc(F)c(F)cc1Cl | -3.7 |
| CN(C)CCOC(=O)C(O)(c1ccccc1)C1CCCCC1 (configuration not stated) | 4.56 |
| Cc1ccccc1C(=O)NCC1(N2CCCCC2)CCCCC1 | 1.97 |
| CN(C)c1ccc(C(=O)NCC2(N(C)C)CCCCC2)cc1 | 2.27 |
| CN(C)C1CCCC1OC(=O)C(O)(c1ccccc1)c1ccccc1 (configuration not stated) | 0.857 |
